Sequences of proteins named here, by UniProt entry; tags and fusion partners are left off. A change or cut given only in a name is not applied to a line headed by its entry.
UniProt O94782: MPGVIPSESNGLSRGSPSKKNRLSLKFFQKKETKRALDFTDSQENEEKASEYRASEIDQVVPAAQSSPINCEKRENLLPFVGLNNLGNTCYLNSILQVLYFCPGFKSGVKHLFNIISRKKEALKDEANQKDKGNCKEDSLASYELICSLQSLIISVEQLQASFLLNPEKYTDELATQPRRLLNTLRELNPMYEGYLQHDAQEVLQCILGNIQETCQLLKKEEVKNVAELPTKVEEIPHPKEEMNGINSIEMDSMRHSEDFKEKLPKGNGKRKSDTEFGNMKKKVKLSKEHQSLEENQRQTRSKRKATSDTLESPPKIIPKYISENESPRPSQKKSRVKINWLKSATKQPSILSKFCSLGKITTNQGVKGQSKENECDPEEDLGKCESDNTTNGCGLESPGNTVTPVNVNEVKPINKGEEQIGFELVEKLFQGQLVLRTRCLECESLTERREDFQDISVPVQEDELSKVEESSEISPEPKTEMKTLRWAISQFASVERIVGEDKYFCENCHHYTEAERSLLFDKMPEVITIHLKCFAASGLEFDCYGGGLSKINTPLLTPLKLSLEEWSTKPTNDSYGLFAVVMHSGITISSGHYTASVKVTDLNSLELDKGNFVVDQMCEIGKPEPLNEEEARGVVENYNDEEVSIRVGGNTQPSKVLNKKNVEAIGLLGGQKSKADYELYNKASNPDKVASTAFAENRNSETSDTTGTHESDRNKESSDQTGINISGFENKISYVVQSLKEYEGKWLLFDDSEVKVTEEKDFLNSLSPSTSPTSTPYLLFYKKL

The campaign covered roughly 390,000 compounds. About 910 (0.23%) were called active. Inconclusive results, whose numbers are uncertain, are shown with a selection of clear calls. The call rests on the fitted dose curve; in most records, active means well fitted inhibition curve with a large enough effect; inconclusive means small, poorly fitted or top-dose-only effect; inactive means no such curve, though single readings can be large or run the other way. Potencies beside an inconclusive call are fits to weak or partial responses and may not hold up.
These compounds were tested against Ubiquitin carboxyl-terminal hydrolase 1 (Homo sapiens) (UniProt O94782) (assay: Inhibitors of USP1/UAF1: Primary Screen). Conditions: recombinant USP1/UAF1, Ub-Rhodamine cleavage fluorescence; activity change, negative = inhibition: at 57.1 µM (top of the series).
Outline: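 USP1/UAF1 complex at 1 nM was preincubated with compound for 15 min at room temperature, then Ub-Rho substrate (150nM final) was added. Fluorescence (480/540 nm) was read kinetically, 6 reads every 60 seconds.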
For Cc1ccc(/C=C(/NC(=O)c2ccccc2)C(=O)NC(Cc2c[nH]c3ccccc23)C(=O)O)cc1 (configuration not stated), the Potency was inconclusive: 0.891 µM [inhibitor, full curve]. In the case of COc1ccc(Cn2c(CNS(=O)(=O)c3ccc(C)c(C)c3)nc3cccnc32)cc1, the “activity change, negative = inhibition” value is reported as inactive: 10.2%. O=C(NCc1ccc2c(c1)CCN2C(=O)c1ccccc1)Nc1cc(F)ccc1F was tested, and the Potency was inconclusive: 50.1 µM [inhibitor, single point]. In the case of CCOC(=O)Cn1c(=O)n(CC2CCCO2)c2nc(-c3ccccc3F)nc(C(N)=O)c21 (configuration not stated), the “activity change, negative = inhibition” value is reported as inactive: -21.8%. With Cc1cccc(C(=O)O/N=C(\N)c2ccccn2)c1 the Potency was inconclusive: 11.2 µM [inhibitor, partial curve, poor fit]. For Cc1ccc(CCNC(=O)c2cn(C)c3ccc(S(=O)(=O)N(C)C4CCCCC4)cc3c2=O)cc1, the Potency was inconclusive: 8.91 µM [inhibitor, partial curve]. In the case of Cc1ccc(NC(=S)Nc2cccc3ccccc23)cc1, the “activity change, negative = inhibition” value is reported as inactive: -30.4%. In the case of COc1ccc(N(Cc2cccs2)C(=O)c2ccc(Br)o2)cc1, the “activity change, negative = inhibition” value is reported as inactive: -4.89%. C=CCn1c(=S)[nH]c2cc(-c3ccccc3)sc2c1=O was tested, and the Potency was inconclusive: 39.8 µM [inhibitor, single point]. COc1cccc(-c2nnc(Nc3nc4c(F)cccc4s3)o2)c1 was tested, and the Potency was inconclusive: 31.6 µM [inhibitor, partial curve]. With CCOc1cc(C2C(C(=O)Nc3ccc(OC)cc3)=C(C)Nc3nc(SC)nn32)ccc1O (configuration not stated) the Potency was inconclusive: 10 µM [inhibitor, single point]. In the case of Cc1sc2ncn(CC(=O)NCCCC(=O)N3CCCCC3)c(=O)c2c1C, the Potency is reported as inconclusive: 28.2 µM [inhibitor, single point]. Cc1cc(C)c2[nH]c(=O)c(C(c3nnnn3CC3CCCO3)N3CCCC(C)C3)cc2c1 (configuration not stated) was tested, and the “activity change, negative = inhibition” value was inactive: -15.1%. Cc1cc2ccccc2cc1CN1CCOCC1 was tested, and the Potency was inconclusive: 0.631 µM [inhibitor, full curve, poor fit]. Cn1c2nc(=O)n(-c3ccccc3)c(=O)c-2nc2c1CCCC2 was tested, and the Potency was active: 14.1 µM. With COc1ccc2[nH]c(=O)c(CN(c3ccccc3OC)S(=O)(=O)c3ccccc3)cc2c1 the Potency was inconclusive: 20 µM [inhibitor, partial curve, poor fit]. For COCCNC(=O)CSc1cn(CC(=O)N2CCCCCC2)c2ccccc12, the “activity change, negative = inhibition” value was inactive: -20.7%. With COc1ccc(Cl)cc1C(=O)NCCCSc1ccccc1 the Potency was inconclusive: 3.98 µM [inhibitor, full curve, poor fit]. For CCN(CC(=O)NCc1ccc(F)cc1)C(=O)/C=C/c1ccc(S(=O)(=O)N(CC)CC)cc1, the Potency was inconclusive: 35.5 µM [inhibitor, partial curve]. CCOC(=O)N1CCN(c2nc3c(C)cccn3c(=O)c2C=O)CC1 was tested, and the “activity change, negative = inhibition” value was inactive: -2.5%. Cc1ccc(S(=O)(=O)Oc2ccc(/C=N/NC(=O)c3cccnc3)cc2)cc1 was tested, and the Potency was inconclusive: 0.891 µM [inhibitor, full curve, poor fit]. For Cc1ccc(N2C(=O)NC(NS(=O)(=O)c3ccc(Cl)cc3)(C(F)(F)F)C2=O)cc1C (configuration not stated), the “activity change, negative = inhibition” value was inactive: -4.3%. For CCCC(=O)N1CC(=O)Nc2ccc(Cl)cc2C1c1ccccc1 (configuration not stated), the Potency was inconclusive: 6.31 µM [inhibitor, single point]. O=C(NC(=S)N1CCN(c2ccc(F)cc2)CC1)c1ccccc1 was tested, and the Potency was inconclusive: 5.62 µM [inhibitor, partial curve]. With CC(=O)Nc1ccc(S(=O)(=O)N2C(C)CCCC2C)cc1 (configuration not stated) the “activity change, negative = inhibition” value was inactive: -17.2%. CCc1ccccc1NC(=O)Cn1ccn(-c2cc(C)cc(C)c2)c(=O)c1=O was tested, and the “activity change, negative = inhibition” value was inactive: 3.77%. For COc1ccc(NC(=O)c2ccc3oc(=O)c(S(=O)(=O)c4ccc(C)cc4)cc3c2)cc1OC, the Potency was inconclusive: 0.631 µM [inhibitor, full curve, poor fit]. For Cc1ccc(N)cc1S(=O)(=O)N(C)C, the Potency was inconclusive: 7.08 µM [inhibitor, partial curve, poor fit]. Oc1c(N=Nc2ccc(F)cc2)ccc2ccccc12 was tested, and the “activity change, negative = inhibition” value was inactive: -16.3%. In the case of CCOC(=O)c1oc2ccccc2c1NC(=O)C(C)(C)C, the activity change, negative = inhibition is reported as inconclusive: -34.4% [inhibitor]. For O=C1/C(=C/c2ccccc2)Nc2ccccc21, the Potency was inconclusive: 25.1 µM [inhibitor, partial curve]. With CC(C)(C)c1ccc(S(=O)(=O)N(CCCN2CCOCC2)Cc2cccs2)cc1 the Potency was “inactive”. In the case of CCOc1cccc(=O)c2c(C)n(C)c(C)c12, the “activity change, negative = inhibition” value is reported as inactive: -14.5%. COc1ccccc1-c1nc(C#N)c(NCCCn2ccnc2)o1 was tested, and the Potency was inconclusive: 2.82 µM [inhibitor, partial curve]. For CC1Cc2ccccc2N1C(=O)C1CCCN(S(=O)(=O)c2cccc3cccnc23)C1 (configuration not stated), the Potency was inconclusive: 31.6 µM [inhibitor, single point]. COc1cc(C(=O)CC2(O)C(=O)N(Cc3ccccc3Cl)c3ccccc32)cc(OC)c1OC (configuration not stated) was tested, and the “activity change, negative = inhibition” value was inactive: -11.2%. With CCN(C(=O)C(=O)Nc1ccc2nc3n(c(=O)c2c1)CCCCC3)c1ccc(F)cc1 the “activity change, negative = inhibition” value was inactive: -29.5%. With COc1ccc(CC(=O)NC2CC(=O)N(c3cccc(F)c3)C2)cc1 (configuration not stated) the Potency was inconclusive: 0.631 µM [inhibitor, full curve, poor fit]. In the case of Cc1ccc(C)c2[nH]c(=O)c(CN(Cc3ccco3)S(=O)(=O)c3ccc4c(c3)OCCO4)cc12, the “activity change, negative = inhibition” value is reported as inactive: -12.5%. CC[C@]12c3[nH]c4ccc(Cl)cc4c3CCN1C(=O)[C@@H](CC(=O)NCCCN(C)C)C[C@@H]2C(=O)N1CCN(C(=O)C2CC2)CC1 was tested, and the Potency was inconclusive: 0.282 µM [inhibitor, full curve, poor fit]. With CCCN1C(=O)/C(=C/c2nc3ccccc3c(=O)[nH]2)c2ccccc21 the “activity change, negative = inhibition” value was inactive: -5.13%. With O=C1OCCN1C(=O)[C@H]1[C@H](c2ccc(F)cc2)C(c2ccccc2)=NN1c1ccccc1 the Potency was inconclusive: 50.1 µM [inhibitor, partial curve, poor fit]. With O=C(CC(Nc1ccc(F)cc1)C(=O)OCC(=O)c1cccs1)c1ccccc1 (configuration not stated) the “activity change, negative = inhibition” value was inactive: -25.3%. For COc1ccc2c3c([nH]c2c1)[C@H]1C[C@H]2[C@H](C[C@@H](O)[C@H](OC)[C@H]2C(=O)O)CN1CC3, the Potency was inconclusive: 112 µM [inhibitor, partial curve, poor fit]. CCc1ccc(NC(=O)C2CCC(CNS(=O)(=O)c3ccc4c(c3)CC(C)N4C(C)=O)CC2)cc1 (configuration not stated) was tested, and the Potency was inconclusive: 7.08 µM [inhibitor, full curve, poor fit]. For CCCN1C(=O)c2[nH]nc(-c3ccccc3O)c2C1c1ccc(OCc2ccccc2)c(OCC)c1 (configuration not stated), the Potency was inconclusive: 12.6 µM [inhibitor, partial curve, poor fit]. For COC(=O)Cn1c(=O)c2c(nc3n2CC(C)CN3c2ccc(C)c(C)c2)n(C)c1=O (configuration not stated), the Potency was inconclusive: 39.8 µM [inhibitor, partial curve, poor fit]. With CC(=O)Nc1ccc(OCc2cnc(Cl)s2)cc1 the Potency was inconclusive: 5.01 µM [inhibitor, partial curve]. For COc1ccc(CNC(=O)c2cc(S(=O)(=O)N3CCCC3)cn2C)cc1, the Potency was inconclusive: 7.08 µM [inhibitor, partial curve, poor fit]. For O=C(Nc1cccc(Cl)c1)c1cc(-c2ccc3c(c2)OCCO3)on1, the Potency was inconclusive: 44.7 µM [inhibitor, partial curve]. For CCN1C(=O)C(Cc2nc3ccccc3c(=O)n2-c2ccc(OC)cc2)c2cc(C)ccc21 (configuration not stated), the Potency was inconclusive: 31.6 µM [inhibitor, partial curve]. For CCNC(=S)N/N=C/c1sc(N2CCCCC2)nc1-c1cccs1, the Potency was inconclusive: 39.8 µM [inhibitor, single point]. For COc1cc(/C=C2\SC(=O)N(Cc3ccc(Cl)cc3)C2=O)cc([N+](=O)[O-])c1O, the Potency was inconclusive: 35.5 µM [inhibitor, partial curve, poor fit]. With Cc1ccc(C)c(Nc2nc(-c3ccccc3)c3cc(Br)ccc3n2)c1 the Potency was inconclusive: 0.355 µM [inhibitor, full curve, poor fit]. In the case of O=C(c1cc(Sc2ccc(Cl)cc2)nc2ccccc12)N1CCN(c2ccccn2)CC1, the “activity change, negative = inhibition” value is reported as inactive: -18.3%. For CC(NC(=O)COC(=O)c1ccc2c(=O)n3c(nc2c1)CCCCC3)c1ccc(F)cc1 (configuration not stated), the Potency was inconclusive: 10 µM [inhibitor, partial curve]. O=C(NC1CCCCCCC1)c1ccccc1-c1ccccc1 was tested, and the “activity change, negative = inhibition” value was inactive: -6.16%. In the case of CC(C)(C)c1cc(C(=O)N/N=C/c2ccc(-c3ccccc3[N+](=O)[O-])o2)n[nH]1, the Potency is reported as inconclusive: 35.5 µM [inhibitor, partial curve]. CNC(=O)C[C@H]1C(=O)N(C2CCCCC2)C[C@@H]1c1ccc(Br)cc1 was tested, and the Potency was inconclusive: 39.8 µM [inhibitor, partial curve]. With Cc1cc(C)n(-c2ccc(NC(=O)C3CCCCN3Cc3cccc4c3OCO4)cc2)n1 (configuration not stated) the Potency was inconclusive: 44.7 µM [inhibitor, partial curve, poor fit]. For O=C(Nc1cccc([N+](=O)[O-])c1)c1ccc2nc(N3C(=O)CCC3=O)sc2c1, the “activity change, negative = inhibition” value was inactive: -19.4%. For O=C(O)CNS(=O)(=O)c1ccc2c3c(cccc13)C(=O)N2, the “activity change, negative = inhibition” value was inactive: -9.68%. With Cc1ccc(-c2csc(NC(=O)c3ccc(Br)cc3)c2C(=O)O)cc1 the Potency was inconclusive: 44.7 µM [inhibitor, partial curve, poor fit]. With Cc1ccc(NC(=O)CSc2c3c(nc4ccccc24)CCCC3)cc1F the “activity change, negative = inhibition” value was inactive: -16.1%. COc1ccc(NC(=O)c2cc3ccccc3o2)cn1 was tested, and the “activity change, negative = inhibition” value was inactive: -8.91%. With C[C@]12CCC(=O)C=C1CCC1C2CC[C@@]2(C)C1CCC21OCCO1 (some centres not stated) the Potency was inconclusive: 0.447 µM [inhibitor, full curve, poor fit]. In the case of Cc1cccc(NC(=O)c2sc3nc4c(cc3c2N)CCCCCC4)c1C, the Potency is reported as inconclusive: 1.58 µM [inhibitor, full curve, poor fit].
Further: nearly all actives have a fitted effect of over 60% in size.
On the % scale 0 is the no-effect control and ±100 the full control effect; potency means the concentration at half of the fitted maximal effect.
